In publication doi:10.1101/181776:
No constants are given. Whether binding was seen depends on the method and setting. Binding seen in cells or lysates may run through a third protein. Some results given as binding are weak or reduced against the parent protein; the word gives no strength. For some assays here: Sequences can lack the tags named with a protein.

The chains behind the UniProt entries cited, without tags or fusion partners. Where a name states a change or a piece, a line headed by the entry shows the natural chain unless it says otherwise.
UniProt O60573, whole entry: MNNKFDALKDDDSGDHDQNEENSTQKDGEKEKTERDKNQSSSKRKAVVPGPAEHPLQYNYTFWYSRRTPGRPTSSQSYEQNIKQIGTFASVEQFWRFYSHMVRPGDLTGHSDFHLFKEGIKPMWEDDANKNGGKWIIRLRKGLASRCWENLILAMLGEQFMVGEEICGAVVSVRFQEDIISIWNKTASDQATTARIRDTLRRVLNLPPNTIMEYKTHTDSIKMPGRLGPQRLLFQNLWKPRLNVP
UniProt A5YKK6, whole entry: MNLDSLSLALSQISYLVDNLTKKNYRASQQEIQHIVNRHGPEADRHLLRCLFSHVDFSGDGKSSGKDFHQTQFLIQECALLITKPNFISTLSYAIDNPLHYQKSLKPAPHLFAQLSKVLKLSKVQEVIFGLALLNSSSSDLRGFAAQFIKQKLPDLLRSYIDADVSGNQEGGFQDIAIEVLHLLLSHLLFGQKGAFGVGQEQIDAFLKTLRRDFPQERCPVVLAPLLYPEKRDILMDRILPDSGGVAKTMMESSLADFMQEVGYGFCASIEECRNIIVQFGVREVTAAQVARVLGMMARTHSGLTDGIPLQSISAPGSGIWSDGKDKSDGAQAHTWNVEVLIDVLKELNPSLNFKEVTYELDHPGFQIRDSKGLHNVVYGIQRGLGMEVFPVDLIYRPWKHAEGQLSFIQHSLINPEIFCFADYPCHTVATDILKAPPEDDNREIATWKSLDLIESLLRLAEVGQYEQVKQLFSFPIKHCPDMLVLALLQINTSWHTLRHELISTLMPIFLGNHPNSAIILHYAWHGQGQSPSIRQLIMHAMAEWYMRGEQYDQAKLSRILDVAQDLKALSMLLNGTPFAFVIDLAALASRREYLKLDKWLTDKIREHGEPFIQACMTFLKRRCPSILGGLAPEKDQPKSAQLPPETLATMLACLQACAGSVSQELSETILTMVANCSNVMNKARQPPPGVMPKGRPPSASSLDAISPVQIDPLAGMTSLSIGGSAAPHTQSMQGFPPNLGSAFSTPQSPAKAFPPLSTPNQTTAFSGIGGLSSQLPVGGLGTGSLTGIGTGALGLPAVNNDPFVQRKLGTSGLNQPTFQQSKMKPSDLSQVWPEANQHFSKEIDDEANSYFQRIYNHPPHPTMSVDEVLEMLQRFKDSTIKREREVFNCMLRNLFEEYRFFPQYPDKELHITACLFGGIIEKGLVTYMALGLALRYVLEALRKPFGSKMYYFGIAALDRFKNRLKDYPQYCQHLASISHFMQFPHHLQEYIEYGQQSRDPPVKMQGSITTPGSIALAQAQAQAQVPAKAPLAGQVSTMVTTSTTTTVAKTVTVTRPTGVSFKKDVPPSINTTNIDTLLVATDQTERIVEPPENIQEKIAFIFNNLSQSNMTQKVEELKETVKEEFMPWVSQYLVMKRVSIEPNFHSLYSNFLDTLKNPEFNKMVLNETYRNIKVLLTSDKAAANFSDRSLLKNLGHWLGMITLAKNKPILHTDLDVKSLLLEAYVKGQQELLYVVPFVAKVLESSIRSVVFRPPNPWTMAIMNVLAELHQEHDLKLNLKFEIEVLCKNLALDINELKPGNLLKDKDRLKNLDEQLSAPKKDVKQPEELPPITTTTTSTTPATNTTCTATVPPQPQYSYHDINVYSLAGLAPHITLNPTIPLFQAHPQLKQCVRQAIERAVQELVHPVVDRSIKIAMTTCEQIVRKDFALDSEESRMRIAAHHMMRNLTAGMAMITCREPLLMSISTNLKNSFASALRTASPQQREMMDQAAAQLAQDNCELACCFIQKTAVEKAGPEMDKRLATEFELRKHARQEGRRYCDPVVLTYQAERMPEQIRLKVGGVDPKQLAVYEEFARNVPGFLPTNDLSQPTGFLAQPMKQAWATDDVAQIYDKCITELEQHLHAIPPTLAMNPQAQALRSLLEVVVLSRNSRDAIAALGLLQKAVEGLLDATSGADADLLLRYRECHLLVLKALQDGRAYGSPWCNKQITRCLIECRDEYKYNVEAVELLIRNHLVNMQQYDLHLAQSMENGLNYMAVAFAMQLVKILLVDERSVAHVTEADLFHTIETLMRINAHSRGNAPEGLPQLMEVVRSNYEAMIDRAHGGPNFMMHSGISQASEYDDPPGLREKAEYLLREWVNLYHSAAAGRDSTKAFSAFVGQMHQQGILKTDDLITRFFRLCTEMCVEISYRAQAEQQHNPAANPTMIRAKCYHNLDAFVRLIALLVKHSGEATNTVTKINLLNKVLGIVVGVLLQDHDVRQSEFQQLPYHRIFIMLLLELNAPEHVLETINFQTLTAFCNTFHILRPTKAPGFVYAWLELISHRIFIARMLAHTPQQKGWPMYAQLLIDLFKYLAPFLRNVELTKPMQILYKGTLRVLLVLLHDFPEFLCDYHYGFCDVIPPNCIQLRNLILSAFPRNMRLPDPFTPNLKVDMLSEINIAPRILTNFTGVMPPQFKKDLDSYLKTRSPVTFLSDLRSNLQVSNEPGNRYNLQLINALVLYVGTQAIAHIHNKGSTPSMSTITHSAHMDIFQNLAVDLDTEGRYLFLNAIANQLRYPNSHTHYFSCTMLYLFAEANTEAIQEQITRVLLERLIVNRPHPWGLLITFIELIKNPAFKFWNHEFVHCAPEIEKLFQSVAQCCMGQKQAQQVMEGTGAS
UniProt Q9UIV1, whole entry: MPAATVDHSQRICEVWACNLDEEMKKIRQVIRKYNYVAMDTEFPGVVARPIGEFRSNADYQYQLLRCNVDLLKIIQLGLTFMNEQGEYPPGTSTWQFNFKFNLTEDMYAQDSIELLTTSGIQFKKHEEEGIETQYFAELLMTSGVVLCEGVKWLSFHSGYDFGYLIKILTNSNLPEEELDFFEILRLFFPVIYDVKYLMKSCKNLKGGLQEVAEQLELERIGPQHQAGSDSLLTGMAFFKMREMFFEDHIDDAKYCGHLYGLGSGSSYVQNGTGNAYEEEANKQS
UniProt Q92600, whole entry: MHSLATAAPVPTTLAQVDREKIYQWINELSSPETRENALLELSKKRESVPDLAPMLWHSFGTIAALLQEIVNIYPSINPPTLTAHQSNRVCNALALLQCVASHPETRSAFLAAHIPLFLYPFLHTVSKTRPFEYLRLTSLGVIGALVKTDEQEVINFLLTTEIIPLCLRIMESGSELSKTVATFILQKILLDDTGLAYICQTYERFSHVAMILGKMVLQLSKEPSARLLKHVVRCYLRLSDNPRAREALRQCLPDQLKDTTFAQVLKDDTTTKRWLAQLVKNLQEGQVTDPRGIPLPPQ
UniProt Q9NZN8, whole entry: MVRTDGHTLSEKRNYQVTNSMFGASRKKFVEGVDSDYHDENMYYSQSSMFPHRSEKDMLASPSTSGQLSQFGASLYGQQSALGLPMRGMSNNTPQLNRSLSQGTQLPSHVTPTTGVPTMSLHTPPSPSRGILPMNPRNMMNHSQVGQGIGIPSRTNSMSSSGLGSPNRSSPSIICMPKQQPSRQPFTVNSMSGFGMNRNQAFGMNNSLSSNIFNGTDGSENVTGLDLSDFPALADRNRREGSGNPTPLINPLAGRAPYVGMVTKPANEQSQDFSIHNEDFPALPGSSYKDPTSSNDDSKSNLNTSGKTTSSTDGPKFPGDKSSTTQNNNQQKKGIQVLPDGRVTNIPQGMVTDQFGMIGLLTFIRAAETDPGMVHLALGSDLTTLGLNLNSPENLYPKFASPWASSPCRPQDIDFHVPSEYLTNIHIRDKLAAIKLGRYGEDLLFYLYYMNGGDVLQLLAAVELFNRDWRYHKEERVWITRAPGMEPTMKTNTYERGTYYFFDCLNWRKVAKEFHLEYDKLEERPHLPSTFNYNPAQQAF
UniProt O75175, whole entry: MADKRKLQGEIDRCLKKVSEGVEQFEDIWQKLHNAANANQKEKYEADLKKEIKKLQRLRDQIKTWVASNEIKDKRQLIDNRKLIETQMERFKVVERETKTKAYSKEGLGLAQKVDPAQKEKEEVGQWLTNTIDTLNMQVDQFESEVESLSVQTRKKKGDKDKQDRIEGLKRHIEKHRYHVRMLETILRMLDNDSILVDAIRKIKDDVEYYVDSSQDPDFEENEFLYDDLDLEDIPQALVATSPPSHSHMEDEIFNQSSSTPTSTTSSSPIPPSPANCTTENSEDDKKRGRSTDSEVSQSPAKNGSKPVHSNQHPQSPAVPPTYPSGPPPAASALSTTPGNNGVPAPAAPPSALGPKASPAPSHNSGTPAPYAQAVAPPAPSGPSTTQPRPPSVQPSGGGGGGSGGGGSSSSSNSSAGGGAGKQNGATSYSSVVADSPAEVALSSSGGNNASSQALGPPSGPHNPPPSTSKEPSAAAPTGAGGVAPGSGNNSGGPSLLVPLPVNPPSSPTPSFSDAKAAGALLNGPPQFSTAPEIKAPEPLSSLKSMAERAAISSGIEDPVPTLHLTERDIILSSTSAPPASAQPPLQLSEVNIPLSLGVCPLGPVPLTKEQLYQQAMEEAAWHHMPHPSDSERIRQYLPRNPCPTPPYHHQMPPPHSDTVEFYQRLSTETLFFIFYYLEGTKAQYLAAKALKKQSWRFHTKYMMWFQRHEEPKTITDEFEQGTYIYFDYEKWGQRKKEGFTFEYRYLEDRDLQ
UniProt Q9ULM6, whole entry: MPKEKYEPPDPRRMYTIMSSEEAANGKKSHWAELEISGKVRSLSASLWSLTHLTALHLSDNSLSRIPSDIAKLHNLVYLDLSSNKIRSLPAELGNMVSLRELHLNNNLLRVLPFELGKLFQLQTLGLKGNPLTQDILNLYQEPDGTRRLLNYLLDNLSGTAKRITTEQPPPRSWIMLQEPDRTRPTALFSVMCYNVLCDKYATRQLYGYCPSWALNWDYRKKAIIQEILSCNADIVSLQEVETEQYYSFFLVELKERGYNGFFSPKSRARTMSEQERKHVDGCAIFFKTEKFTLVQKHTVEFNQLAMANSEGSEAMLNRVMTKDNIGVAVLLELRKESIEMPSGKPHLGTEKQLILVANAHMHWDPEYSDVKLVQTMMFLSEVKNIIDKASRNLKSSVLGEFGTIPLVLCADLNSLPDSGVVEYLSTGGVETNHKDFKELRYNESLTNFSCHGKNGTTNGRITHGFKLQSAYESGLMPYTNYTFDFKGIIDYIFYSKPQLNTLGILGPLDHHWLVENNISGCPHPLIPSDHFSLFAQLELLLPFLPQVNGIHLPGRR

Key:
Experiment in all cases: co-IP
[1] = target: HA-tagged m4EHP (mammalian cap-binding protein 4EHP) (human (cDNA from HeLa 11ht RNA)) (UniProt O60573)
[2] = target: GFP-tagged CNOT1 (UniProt A5YKK6)
[3] = target: GFP-tagged CNOT7 (deadenylase, alternatively known as Caf1) (UniProt Q9UIV1)
[4] = target: GFP-tagged CNOT9 (also known as RQCD1) (UniProt Q92600)
[5] = target: FLAG-tagged m4EHP (human (cDNA from HeLa 11ht RNA)) (UniProt O60573)
[6] = target: GFP-tagged CNOT2 (UniProt Q9NZN8)
[7] = target: GFP-tagged CNOT3 (UniProt O75175)
[8] = target: GFP-tagged CNOT6 (deadenylase, alternatively known as Ccr4a) (UniProt Q9ULM6)

Binder	binding [1]	binding [2]	binding [3]	binding [4]	binding [5]	binding [6]	binding [7]	binding [8]
endogenous GIGYF2 (protein, UniProt Q6Y7W6 1-1299) MAAETQTLNFGPEWLRALSSGGSITSPPLSPALPKYKLADYRYGREEMLALFLKDNKIPSDLLDKEFLPILQEEPLPPLALVPFTEEEQRNFSMSVNSAAVLRLTGRGGGGTVVGAPRGRSSSRGRGRGRGECGFYQRSFDEVEGVFGRGGGREMHRSQSWEERGDRRFEKPGRKDVGRPNFEEGGPTSVGRKHEFIRSESENWRIFREEQNGEDEDGGWRLAGSRRDGERWRPHSPDGPRSAGWREHMERRRRFEFDFRDRDDERGYRRVRSGSGSIDDDRDSLPEWCLEDAEEEMGTFDSSGAFLSLKKVQKEPIPEEQEMDFRPVDEGEECSDSEGSHNEEAKEPDKTNKKEGEKTDRVGVEASEETPQTSSSSARPGTPSDHQSQEASQFERKDEPKTEQTEKAEEETRMENSLPAKVPSRGDEMVADVQQPLSQIPSDTASPLLILPPPVPNPSPTLRPVETPVVGAPGMGSVSTEPDDEEGLKHLEQQAEKMVAYLQDSALDDERLASKLQEHRAKGVSIPLMHEAMQKWYYKDPQGEIQGPFNNQEMAEWFQAGYFTMSLLVKRACDESFQPLGDIMKMWGRVPFSPGPAPPPHMGELDQERLTRQQELTALYQMQHLQYQQFLIQQQYAQVLAQQQKAALSSQQQQQLALLLQQFQTLKMRISDQNIIPSVTRSVSVPDTGSIWELQPTASQPTVWEGGSVWDLPLDTTTPGPALEQLQQLEKAKAAKLEQERREAEMRAKREEEERKRQEELRRQQEEILRRQQEEERKRREEEELARRKQEEALRRQREQEIALRRQREEEERQQQEEALRRLEERRREEEERRKQEELLRKQEEEAAKWAREEEEAQRRLEENRLRMEEEAARLRHEEEERKRKELEVQRQKELMRQRQQQQEALRRLQQQQQQQQLAQMKLPSSSTWGQQSNTTACQSQATLSLAEIQKLEEERERQLREEQRRQQRELMKALQQQQQQQQQKLSGWGNVSKPSGTTKSLLEIQQEEARQMQKQQQQQQQHQQPNRARNNTHSNLHTSIGNSVWGSINTGPPNQWASDLVSSIWSNADTKNSNMGFWDDAVKEVGPRNSTNKNKNNASLSKSVGVSNRQNKKVEEEEKLLKLFQGVNKAQDGFTQWCEQMLHALNTANNLDVPTFVSFLKEVESPYEVHDYIRAYLGDTSEAKEFAKQFLERRAKQKANQQRQQQQLPQQQQQQPPQQPPQQPQQQDSVWGMNHSTLHSVFQTNQSNNQQSNFEAVQSGKKKKKQKMVRADPSLLGFSVNASSERLNMGEIETLDDY	binds							
HA-tagged GIGYF2 fragment 1-532 (N-terminal domain) (domain or fragment, UniProt Q6Y7W6 1-532) MAAETQTLNFGPEWLRALSSGGSITSPPLSPALPKYKLADYRYGREEMLALFLKDNKIPSDLLDKEFLPILQEEPLPPLALVPFTEEEQRNFSMSVNSAAVLRLTGRGGGGTVVGAPRGRSSSRGRGRGRGECGFYQRSFDEVEGVFGRGGGREMHRSQSWEERGDRRFEKPGRKDVGRPNFEEGGPTSVGRKHEFIRSESENWRIFREEQNGEDEDGGWRLAGSRRDGERWRPHSPDGPRSAGWREHMERRRRFEFDFRDRDDERGYRRVRSGSGSIDDDRDSLPEWCLEDAEEEMGTFDSSGAFLSLKKVQKEPIPEEQEMDFRPVDEGEECSDSEGSHNEEAKEPDKTNKKEGEKTDRVGVEASEETPQTSSSSARPGTPSDHQSQEASQFERKDEPKTEQTEKAEEETRMENSLPAKVPSRGDEMVADVQQPLSQIPSDTASPLLILPPPVPNPSPTLRPVETPVVGAPGMGSVSTEPDDEEGLKHLEQQAEKMVAYLQDSALDDERLASKLQEHRAKGVSIPLMHEA		binds	binds					
HA-tagged GIGYF2 fragment 1-596 (N-terminal domain extended by the GYF domain) (domain or fragment, UniProt Q6Y7W6 1-596) MAAETQTLNFGPEWLRALSSGGSITSPPLSPALPKYKLADYRYGREEMLALFLKDNKIPSDLLDKEFLPILQEEPLPPLALVPFTEEEQRNFSMSVNSAAVLRLTGRGGGGTVVGAPRGRSSSRGRGRGRGECGFYQRSFDEVEGVFGRGGGREMHRSQSWEERGDRRFEKPGRKDVGRPNFEEGGPTSVGRKHEFIRSESENWRIFREEQNGEDEDGGWRLAGSRRDGERWRPHSPDGPRSAGWREHMERRRRFEFDFRDRDDERGYRRVRSGSGSIDDDRDSLPEWCLEDAEEEMGTFDSSGAFLSLKKVQKEPIPEEQEMDFRPVDEGEECSDSEGSHNEEAKEPDKTNKKEGEKTDRVGVEASEETPQTSSSSARPGTPSDHQSQEASQFERKDEPKTEQTEKAEEETRMENSLPAKVPSRGDEMVADVQQPLSQIPSDTASPLLILPPPVPNPSPTLRPVETPVVGAPGMGSVSTEPDDEEGLKHLEQQAEKMVAYLQDSALDDERLASKLQEHRAKGVSIPLMHEAMQKWYYKDPQGEIQGPFNNQEMAEWFQAGYFTMSLLVKRACDESFQPLGDIMKMWGRVPFSPGP		binds	binds	binds				
HA-tagged GIGYF2 fragment Δ606 (lacks the N-terminal and GYF domains, comprises the MED) (domain or fragment, UniProt Q6Y7W6 607-1299) QERLTRQQELTALYQMQHLQYQQFLIQQQYAQVLAQQQKAALSSQQQQQLALLLQQFQTLKMRISDQNIIPSVTRSVSVPDTGSIWELQPTASQPTVWEGGSVWDLPLDTTTPGPALEQLQQLEKAKAAKLEQERREAEMRAKREEEERKRQEELRRQQEEILRRQQEEERKRREEEELARRKQEEALRRQREQEIALRRQREEEERQQQEEALRRLEERRREEEERRKQEELLRKQEEEAAKWAREEEEAQRRLEENRLRMEEEAARLRHEEEERKRKELEVQRQKELMRQRQQQQEALRRLQQQQQQQQLAQMKLPSSSTWGQQSNTTACQSQATLSLAEIQKLEEERERQLREEQRRQQRELMKALQQQQQQQQQKLSGWGNVSKPSGTTKSLLEIQQEEARQMQKQQQQQQQHQQPNRARNNTHSNLHTSIGNSVWGSINTGPPNQWASDLVSSIWSNADTKNSNMGFWDDAVKEVGPRNSTNKNKNNASLSKSVGVSNRQNKKVEEEEKLLKLFQGVNKAQDGFTQWCEQMLHALNTANNLDVPTFVSFLKEVESPYEVHDYIRAYLGDTSEAKEFAKQFLERRAKQKANQQRQQQQLPQQQQQQPPQQPPQQPQQQDSVWGMNHSTLHSVFQTNQSNNQQSNFEAVQSGKKKKKQKMVRADPSLLGFSVNASSERLNMGEIETLDDY				binds				
HA-tagged GIGYF2 (GRB10-interacting GYF protein 2) (protein, UniProt Q6Y7W6 1-1299) MAAETQTLNFGPEWLRALSSGGSITSPPLSPALPKYKLADYRYGREEMLALFLKDNKIPSDLLDKEFLPILQEEPLPPLALVPFTEEEQRNFSMSVNSAAVLRLTGRGGGGTVVGAPRGRSSSRGRGRGRGECGFYQRSFDEVEGVFGRGGGREMHRSQSWEERGDRRFEKPGRKDVGRPNFEEGGPTSVGRKHEFIRSESENWRIFREEQNGEDEDGGWRLAGSRRDGERWRPHSPDGPRSAGWREHMERRRRFEFDFRDRDDERGYRRVRSGSGSIDDDRDSLPEWCLEDAEEEMGTFDSSGAFLSLKKVQKEPIPEEQEMDFRPVDEGEECSDSEGSHNEEAKEPDKTNKKEGEKTDRVGVEASEETPQTSSSSARPGTPSDHQSQEASQFERKDEPKTEQTEKAEEETRMENSLPAKVPSRGDEMVADVQQPLSQIPSDTASPLLILPPPVPNPSPTLRPVETPVVGAPGMGSVSTEPDDEEGLKHLEQQAEKMVAYLQDSALDDERLASKLQEHRAKGVSIPLMHEAMQKWYYKDPQGEIQGPFNNQEMAEWFQAGYFTMSLLVKRACDESFQPLGDIMKMWGRVPFSPGPAPPPHMGELDQERLTRQQELTALYQMQHLQYQQFLIQQQYAQVLAQQQKAALSSQQQQQLALLLQQFQTLKMRISDQNIIPSVTRSVSVPDTGSIWELQPTASQPTVWEGGSVWDLPLDTTTPGPALEQLQQLEKAKAAKLEQERREAEMRAKREEEERKRQEELRRQQEEILRRQQEEERKRREEEELARRKQEEALRRQREQEIALRRQREEEERQQQEEALRRLEERRREEEERRKQEELLRKQEEEAAKWAREEEEAQRRLEENRLRMEEEAARLRHEEEERKRKELEVQRQKELMRQRQQQQEALRRLQQQQQQQQLAQMKLPSSSTWGQQSNTTACQSQATLSLAEIQKLEEERERQLREEQRRQQRELMKALQQQQQQQQQKLSGWGNVSKPSGTTKSLLEIQQEEARQMQKQQQQQQQHQQPNRARNNTHSNLHTSIGNSVWGSINTGPPNQWASDLVSSIWSNADTKNSNMGFWDDAVKEVGPRNSTNKNKNNASLSKSVGVSNRQNKKVEEEEKLLKLFQGVNKAQDGFTQWCEQMLHALNTANNLDVPTFVSFLKEVESPYEVHDYIRAYLGDTSEAKEFAKQFLERRAKQKANQQRQQQQLPQQQQQQPPQQPPQQPQQQDSVWGMNHSTLHSVFQTNQSNNQQSNFEAVQSGKKKKKQKMVRADPSLLGFSVNASSERLNMGEIETLDDY		binds	binds	binds	binds	binds	binds	binds
